Patent publication US12630571B2, “Crystal form of L-glufosinate and preparation method and use thereof” (JIANGSU SEVENCONTINENT GREEN TECHNOLOGY RESEARCH INSTITUTE …, priority 2022, dated 2026)
Some entries share one result that the patent states for a list of compounds. At least one structure is not confirmed: it was looked up by name or label, or the drawing left a doubt.

Test system: weeds such as Rumex, Alopecurus aequalis, Euphorbia helioscopia, and bluegrass
Experiment: Field efficacy experiment, summary statements over all weeds
Assay type: in vivo
Procedure: The combination of preparation processing and field efficacy test was adopted below.
The above-mentioned formulations were prepared with the crystals of the embodiments of the present disclosure and the crystal form A in the patent CN111065270A respectively for field efficacy experiments. It was detected that the physical and chemical properties of the aqueous solution products prepared by each crystal form were stable and met the needs of production and use, and at the same time, field experiments were carried out on different weeds. The dosage was 120 mL/mu.
Referring to the “Pesticide-Guidelines for the field efficacy trials”, 5 sites were investigated in each plot, each site was 1 square meter, and the types of weeds, the total number of plants, the symptoms of poisoning, the number of dead plants, etc. were recorded for each treatment 7 days after the treatment, and then the results of the plant control effect were counted, and the weed mortality was calculated and counted specifically.

## CP(=O)(O)CC[C@H](N)C(=O)O.N [Crystal form D, L-glufosinate ammonium]
  plant control effects on weeds: over 85%
